Results from the supplement of paper PMC12578635.
This is one part of the list. No stated cut-off is given here; in the data, active = 150% or more and inactive = the rest. Most values come without repeats; read them as rough.

The compounds below were run on Staphylococcus aureus JE2-lux inside RAW 264.7 macrophages (assay: intracellular bacterial bioluminescence relative to DMSO vehicle; higher = higher intracellular bacterial metabolic activity). Settings: 10 µM; treatment time 4 h; gentamicin 50 µg/ml.

Intracellular bacterial bioluminescence, inactive:
COc1ccccc1CNC(=O)C1c2ccccc2C(=O)N1Cc1cccnc1 (centres undefined) 132%
CCCn1c(=N)c(C(N)=S)cc2c(=O)n3cccc(C)c3nc21 127%
O=C(CSc1nnc2c3ccccc3nc(Cc3ccccc3)n12)Nc1nccs1 128%
COc1ccccc1CCNC(=O)c1c(O)nc2cc(C)ccn2c1=O 118%
CCN1C(=O)c2cccc3c(S(=O)(=O)Nc4ccccc4OC)ccc1c23 137%
CCSc1nnc(NC(=O)CSc2nnc(C)c(=O)n2N)s1 81.3%
O=C1CCc2cc(S(=O)(=O)NCC(c3ccccc3)N3CCOCC3)ccc2N1 (centres undefined) 103%
Cc1ccc2nnc(-c3ccccc3)c(C(=O)NCc3ccc4c(c3)OCO4)c2c1 81%
CCc1cccc(C)c1NC(=O)Cn1c(=O)c2cccnc2n(-c2ccccc2)c1=O 97.1%
O=C(CSc1nc2ccccc2[nH]1)c1cccs1 97.9%
CCN(CC)CCCNc1ncnc2sc3c(c12)CC(C)CC3 (centres undefined) 120%
Cc1ccc(NC(=O)N2CCC(n3cnc4cccnc43)CC2)cc1Cl 35.9%
O=C(CSc1nnc2[nH]c(=O)ccn12)NCc1ccccc1Cl 104%
COc1ccnc(Cn2nc3c4c5c(sc4ncn3c2=O)CC(C)CC5)c1OC (centres undefined) 36.8%
CCN(C(=O)c1ccccn1)c1nc2c(s1)CCc1oc(C)cc1-2 90.2%
O=C(Nc1ccc2c(c1)CCC2)c1cccc2nccnc12 94.8%
COc1ccc(NC(=O)CSc2nnc3c(C)cc4ccccc4n23)cc1 97.7%
Cc1ccc(N2C(=O)c3cc4ccsc4n3CC2(C)C(=O)NC2CCCC2)c(Cl)c1 (centres undefined) 70.7%
COc1ccc2sc(Nc3cccc(Br)c3)nc2c1 136%
COCCNC(=O)c1cnc2c(OC)cc(OC)cc2c1O 110%
Cc1ccc(C)c(S(=O)(=O)Nc2ccc(O)c3ccccc23)c1 85.8%
O=C1N/C(=N/c2ccc(O)cc2)S/C1=C\c1cccnc1 94.2%
CC(=O)Nc1ccc(NS(=O)(=O)c2c[nH]c(=O)[nH]c2=O)cc1 112%
COc1ccc(Nc2ncnc3sc(C(=O)O)c(C)c23)cc1Cl 102%
Cc1sc2nc(C(C)C)n(C3CCN(C(=O)c4ccco4)CC3)c(=O)c2c1C 30.3%
Cc1ccccc1C1C2=C(COC2=O)Nc2c1c(=O)[nH]c(=O)n2C (centres undefined) 138%
COC(=O)C1CCN(C(c2ccc(Cl)c(Cl)c2)c2sc3nc(C)nn3c2O)CC1 (centres undefined) 97.5%
Cc1cc(Sc2ccc(N)cc2)n2nc(C)nc2n1 98.2%
NC(=O)C1CCCN(C(=O)c2ncoc2-c2cccc(F)c2)C1 (centres undefined) 112%
COc1ccc(S(=O)(=O)NCc2ccco2)cc1[N+](=O)[O-] 103%
CCOC(=O)c1nn(-c2ccccc2)c(=O)c2c(NC(=O)C(C)Oc3ccccc3)scc12 (centres undefined) 97.2%
CC1=C(C(=O)OCc2ccccc2)C(c2ccc(Cl)cc2)C(C#N)=C(N)O1 (centres undefined) 96.2%
O=C(NCc1ccc2c(c1)OCO2)C1CCCN1C(=O)Nc1ccc(Cl)cc1 (centres undefined) 97.5%
Cc1n[nH]c(SCCNCc2cc3c(C)nn(-c4ccc(F)cc4)c3[nH]c2=O)n1 102%
COc1ccccc1-n1c(SCC(=O)Nc2cccc3ccccc23)nc2c(c1=O)SCC2 13.7%
CCc1cccc(C)c1Nc1nc(N)c(C(=O)CC(C)C)s1 106%
COc1ccc(/C=C/C(=O)O)cc1S(=O)(=O)NCc1ccc2c(c1)OCO2 94.5%
O=C(Nc1ccc(F)cc1)c1c(O)c2ccccc2[nH]c1=O 121%
COc1cccc(NC(=O)CSc2nn3c(=O)c(C)nnc3s2)c1 106%
COc1cccc(NC(=O)c2ccc(COc3cccc(C)c3)o2)c1 107%
CC1(C)CC(=O)C2=C(C1)OC(N)=C(C#N)C2Cc1ccccc1 (centres undefined) 86.4%
O=c1c2sccc2n2c(=S)[nH]nc2n1CC1CCCO1 (centres undefined) 84.7%
CC(C(=O)Nc1nc2c(s1)CCc1c-2cnn1C)N1C(=O)CSC1=O (centres undefined) 113%
O=C(NCc1cccnc1)c1cnc2ccc(F)cc2c1O 118%
COc1cccc(-n2c(C)c(C)n3c4c(=O)n(CC(=O)OCc5ccccc5)c(=O)n(C)c4nc23)c1 77.1%
Cc1cccc(NC(=O)c2sc3nc(-c4ccccc4)cn3c2C)c1 80.5%
CN(c1ncnc(N)c1[N+](=O)[O-])C1CCCCC1 117%
Cc1ccc(CSc2nc(=O)n3ccc(C)cc3n2)cc1 51.4%
Cc1cc(C)n2c(SCC(=O)Nc3cccc4ccccc34)nnc2n1 72.2%
Cc1cc2ccccc2n2c(=O)n(CC(C)NC(=O)c3ccc(C(N)=O)cc3F)nc12 (centres undefined) 77.4%
CC(=O)Nc1ccc(C(=O)CSc2nc(O)c3c(C)cc(C)nc3n2)cc1 130%
Oc1cccc(C2=NN3C(C2)c2ccccc2OC3c2ccccn2)c1 (centres undefined) 86.9%
Cc1ccc(NC(=O)c2cc(=O)c3ccccc3o2)c(C(=O)c2ccccc2)c1 102%
Cc1ccc(C2NC(=O)NC3=C2C(=O)CC(C)(C)C3)cc1 (centres undefined) 87.9%
COc1cc(/C=C2/S/C(=N/c3ccc(C)cc3)NC2=O)cc(OC)c1OC 90.6%
Cn1c2ccc(Br)cc2c2nnc(SCC(=O)NCc3ccccc3)nc21 83.8%
CCOc1ccc(-n2nnnc2CNS(=O)(=O)c2ccc(F)cc2F)cc1 54.4%
CS(=O)(=O)c1ccc(S(=O)CC(=O)Oc2ccc(C3CCCCC3)cc2)c([N+](=O)[O-])c1 (centres undefined) 102%
CC(=O)CC1(O)C(=O)N(CCOc2ccccc2)c2ccccc21 (centres undefined) 137%
CC(=O)c1csc(NC(=O)Cn2nc(C(F)(F)F)c3c2CCCC3)n1 92.1%
CCS(=O)(=O)N1CCC(n2cnc3cccnc32)CC1 115%
CN1C(=O)/C(=N/NCc2ccccc2)c2ccccc21 92.7%
CC(=O)Nc1ccc(S(=O)(=O)Nc2ccc3c(c2)CCC(=O)N3)c(C)c1 88%
Cc1nc(Oc2ccc(F)cc2)c2c(C)c(C)sc2n1 98.5%
Cc1ccccc1-c1noc(-c2sc3nc[nH]c(=O)c3c2C)n1 66.9%
CN(C)c1ccc(NC(=O)CSc2nnc3c(n2)[nH]c2ccc(Cl)cc23)cc1 108%
COc1cc2cc(C#N)c(SCC(=O)Nc3ccc4c(c3)OCCO4)nc2cc1OC 106%
Cc1ccc(-c2cc3c(N4CCC(C(=O)NC5CCCC5)CC4)nccn3n2)cc1C 96.2%
CCc1nc2c(C)nc(Nc3ccccc3)nc2n1-c1ccccc1 102%
COc1ccc(OC)c2sc(N(Cc3ccncc3)C(=O)COc3ccc(Cl)cc3)nc12 28.1%
CC(C)N1CCc2c(sc(NC(=O)c3ccc(Br)cc3)c2C(N)=O)C1 70.6%
Cc1oc(-c2ccc(F)cc2)nc1C(=O)Nc1cccc(-n2cnnc2)c1 106%
O=C(CSc1nc(O)c2ccccc2n1)N1CCOCC1 101%
COc1ccc(-n2c(=O)[nH]cc(C(=O)N3CCc4ccccc43)c2=O)cc1OC 71.7%
N#C/C(=C\Nc1cc([N+](=O)[O-])ccc1F)c1nc(-c2cccs2)cs1 110%
COc1cccc(-c2cc3nc4c(c(O)n3n2)CCC4)c1 75.1%
Cc1ccc2occ(CN3CCC4(CC3)NC(=O)c3cccnc3N4C)c(=O)c2c1 85.6%
O=C1CC(c2cccc(F)c2)Sc2nc3ccccc3n21 (centres undefined) 139%
N#CCn1ccn(-c2ccc3c(c2)OCO3)c(=O)c1=O 126%
O=C(NCc1ccc2c(c1)OCO2)c1c(O)nc2sccn2c1=O 129%
Cc1ccc(NC(=O)CN2CCC(C(=O)c3ccc4c(c3)OCCO4)CC2)cc1Cl 82%
Cn1c(=O)cc2c3c(c(NS(=O)(=O)c4ccc(F)cc4)ccc31)C(=O)c1ccccc1-2 97.7%
CC(C)c1ccc2nc(SCC(=O)NC3CCCC3)c(C#N)cc2c1 99.3%
O=C(NNc1nc2c(Cl)cccc2s1)c1cc(=O)c2ccccc2o1 109%
CC(=O)c1c(C)oc2ccc(NS(=O)(=O)c3cc4c5c(cccc5c3)C(=O)NC4=O)cc12 99.3%
CCc1nc2ccc(NC(=O)C3(C)CC(=O)N=C4C=C(C)C=CN43)cc2[nH]1 (centres undefined) 102%
CC/N=C1/SC(CC(=O)Nc2sc(CC)cc2C(=O)OCC)C(=O)N1CC (centres undefined) 109%
COc1cccc(CNC(=O)CSc2nnc3c4ccccc4n(C)c3n2)c1 97.7%
CSc1cccc2sc(Nc3ccccc3Cl)nc12 73.5%
Cc1ccc(-n2ncc3c(=O)n(CC(=O)NCc4ccccc4)cnc32)cc1 83.4%
O=C(CSc1nc2c(cnn2-c2ccccc2)c(=O)[nH]1)NCCc1ccccc1 106%
O=C(COc1ccc(Cl)cc1/C=C1\SC(=O)NC1=O)Nc1ccccc1 98%
Cc1ccc(-c2csc(-c3cccn3CC(=O)N3CCCCCC3)n2)cc1 50.8%
O=C(Nc1cccc2ccccc12)C1CCN(c2nnnn2-c2ccccc2)CC1 83.7%

Structures listed so far that have a thiophene ring, fused or not (13):
Intracellular bacterial bioluminescence, inactive:
O=C(CSc1nc2ccccc2[nH]1)c1cccs1 97.9%
CCN(CC)CCCNc1ncnc2sc3c(c12)CC(C)CC3 (centres undefined) 120%
COc1ccnc(Cn2nc3c4c5c(sc4ncn3c2=O)CC(C)CC5)c1OC (centres undefined) 36.8%
Cc1ccc(N2C(=O)c3cc4ccsc4n3CC2(C)C(=O)NC2CCCC2)c(Cl)c1 (centres undefined) 70.7%
COc1ccc(Nc2ncnc3sc(C(=O)O)c(C)c23)cc1Cl 102%
Cc1sc2nc(C(C)C)n(C3CCN(C(=O)c4ccco4)CC3)c(=O)c2c1C 30.3%
CCOC(=O)c1nn(-c2ccccc2)c(=O)c2c(NC(=O)C(C)Oc3ccccc3)scc12 (centres undefined) 97.2%
O=c1c2sccc2n2c(=S)[nH]nc2n1CC1CCCO1 (centres undefined) 84.7%
Cc1nc(Oc2ccc(F)cc2)c2c(C)c(C)sc2n1 98.5%
Cc1ccccc1-c1noc(-c2sc3nc[nH]c(=O)c3c2C)n1 66.9%
CC(C)N1CCc2c(sc(NC(=O)c3ccc(Br)cc3)c2C(N)=O)C1 70.6%
N#C/C(=C\Nc1cc([N+](=O)[O-])ccc1F)c1nc(-c2cccs2)cs1 110%
CC/N=C1/SC(CC(=O)Nc2sc(CC)cc2C(=O)OCC)C(=O)N1CC (centres undefined) 109%

An excerpt from above in order of heavy-atom count, low to high:
Intracellular bacterial bioluminescence, inactive:
CC(=O)Nc1ccc(S(=O)(=O)Nc2ccc3c(c2)CCC(=O)N3)c(C)c1 88%
COc1cccc(CNC(=O)CSc2nnc3c4ccccc4n(C)c3n2)c1 97.7%
COc1ccc(OC)c2sc(N(Cc3ccncc3)C(=O)COc3ccc(Cl)cc3)nc12 28.1%
